In this data set the test system is ApoE−/− mice. Briefly: Oral administration of MnCl2 in ApoE-/- mice on Western diet, Oil Red O staining of atherosclerotic plaques. The note with it: Western diet 12 weeks. It is filed as in vivo, mouse. As to the method:
ApoE^−/− mice (male, 12 weeks old) were fed a Western diet, and MnCl2 was administered through voluntary water consumption. Water consumption rate was predetermined by monitoring the volume of water remained. MnCl2 was supplemented to drinking water to achieve 5 mg/kg body weight. Mice body weight and water consumption were adjusted weekly to adapt to the change of body weight and water consumption. After feeding on the Western diet for 3 months, the mice were killed and the atherosclerotic plaque formation was determined by Oil Red O staining.
The ApoE^−/− mice were killed by CO2 asphyxiation. Mouse aortas were dissected in cold PBS and cut open to expose the atherosclerotic plaques. After fixation in 4% formaldehyde for 16 h at 4° C., the tissues were first rinsed in water for 10 min and then in 60% isopropanol. The aortas were stained with Oil Red O for 15 min with gentle shaking, and rinsed again in 60% isopropanol and then in water for three rinses. The samples were fixed on the cover slides with the endothelial surface facing upwards. The images were recorded using an HP Scanjet G4050. The plaque areas were determined using National Institutes of Health ImageJ software and calculated by expressing the plaque area relative to the total vascular area.

The structures appear in SMILES notation.

As for `[Cl][Mn][Cl]` [MnCl2], the lipid profile entry is “without affecting lipid profile” and the “superoxide dismutase (SOD) activity in liver” value is “without affecting”.

The values are drawn from US20180153993A1, “COMPOSITIONS AND METHODS FOR TREATMENT AND PREVENTION OF CARDIOVASCULAR DISEASES” (The Chinese University of Hong Kong, priority 2016, published 2018).
